± gives the standard deviation of the averaged measurements. The list shows a part of the results, in another mix than the full data.

By UniProt entry, the sequences of proteins in these tests, tags left out. Where a name states a change or a piece, a line headed by the entry shows the natural chain unless it says otherwise.
UniProt P52824: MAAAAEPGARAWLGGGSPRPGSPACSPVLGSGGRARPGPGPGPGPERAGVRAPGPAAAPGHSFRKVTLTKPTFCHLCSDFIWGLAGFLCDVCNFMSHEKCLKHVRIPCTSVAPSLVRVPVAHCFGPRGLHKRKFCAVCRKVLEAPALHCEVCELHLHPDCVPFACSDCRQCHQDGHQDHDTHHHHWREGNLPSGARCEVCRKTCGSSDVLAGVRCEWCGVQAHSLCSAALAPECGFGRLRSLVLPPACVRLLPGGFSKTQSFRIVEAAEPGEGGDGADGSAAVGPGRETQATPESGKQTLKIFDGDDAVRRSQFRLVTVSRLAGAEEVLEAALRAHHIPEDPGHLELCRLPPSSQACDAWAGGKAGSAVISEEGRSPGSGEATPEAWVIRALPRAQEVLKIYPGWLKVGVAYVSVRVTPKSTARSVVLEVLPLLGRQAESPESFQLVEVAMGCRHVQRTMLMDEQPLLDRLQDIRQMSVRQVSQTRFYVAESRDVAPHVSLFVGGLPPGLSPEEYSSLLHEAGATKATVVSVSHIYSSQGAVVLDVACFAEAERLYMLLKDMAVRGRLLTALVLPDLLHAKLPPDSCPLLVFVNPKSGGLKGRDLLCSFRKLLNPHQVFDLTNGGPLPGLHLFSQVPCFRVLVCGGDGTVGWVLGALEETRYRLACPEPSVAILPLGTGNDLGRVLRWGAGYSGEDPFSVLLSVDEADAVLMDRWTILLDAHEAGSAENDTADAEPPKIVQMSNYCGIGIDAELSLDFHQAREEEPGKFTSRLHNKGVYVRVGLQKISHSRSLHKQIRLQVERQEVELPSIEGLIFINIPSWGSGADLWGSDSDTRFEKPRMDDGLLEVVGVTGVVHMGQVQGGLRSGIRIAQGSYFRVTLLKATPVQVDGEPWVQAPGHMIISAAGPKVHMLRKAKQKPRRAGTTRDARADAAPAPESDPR
UniProt P42336, whole entry: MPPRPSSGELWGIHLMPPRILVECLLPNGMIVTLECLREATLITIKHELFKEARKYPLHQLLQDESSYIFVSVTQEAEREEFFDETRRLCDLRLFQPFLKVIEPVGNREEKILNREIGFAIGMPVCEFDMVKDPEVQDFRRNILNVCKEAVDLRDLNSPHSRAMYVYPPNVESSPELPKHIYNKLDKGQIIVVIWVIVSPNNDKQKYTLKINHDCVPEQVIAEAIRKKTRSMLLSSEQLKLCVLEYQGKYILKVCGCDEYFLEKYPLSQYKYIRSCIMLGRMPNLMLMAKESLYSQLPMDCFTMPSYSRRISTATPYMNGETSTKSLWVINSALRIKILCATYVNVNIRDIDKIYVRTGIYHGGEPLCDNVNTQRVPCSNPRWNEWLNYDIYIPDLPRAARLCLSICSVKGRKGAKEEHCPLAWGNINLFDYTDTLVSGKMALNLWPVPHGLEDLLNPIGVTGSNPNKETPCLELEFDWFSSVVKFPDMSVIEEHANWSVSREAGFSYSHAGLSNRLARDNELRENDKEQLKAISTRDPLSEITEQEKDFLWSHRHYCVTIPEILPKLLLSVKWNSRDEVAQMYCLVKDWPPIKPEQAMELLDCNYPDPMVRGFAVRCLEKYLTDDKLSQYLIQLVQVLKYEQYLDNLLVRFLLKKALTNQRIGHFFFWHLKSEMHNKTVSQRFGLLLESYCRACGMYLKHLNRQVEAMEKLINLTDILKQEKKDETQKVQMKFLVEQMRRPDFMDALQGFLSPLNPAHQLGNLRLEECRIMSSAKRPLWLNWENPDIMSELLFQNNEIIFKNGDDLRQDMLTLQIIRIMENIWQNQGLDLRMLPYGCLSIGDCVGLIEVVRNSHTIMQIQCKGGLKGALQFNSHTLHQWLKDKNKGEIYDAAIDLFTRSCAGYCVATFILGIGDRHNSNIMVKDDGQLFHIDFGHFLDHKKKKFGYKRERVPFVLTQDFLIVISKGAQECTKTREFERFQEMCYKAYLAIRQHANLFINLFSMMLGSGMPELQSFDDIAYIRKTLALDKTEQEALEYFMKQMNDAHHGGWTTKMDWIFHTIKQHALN
UniProt P49757: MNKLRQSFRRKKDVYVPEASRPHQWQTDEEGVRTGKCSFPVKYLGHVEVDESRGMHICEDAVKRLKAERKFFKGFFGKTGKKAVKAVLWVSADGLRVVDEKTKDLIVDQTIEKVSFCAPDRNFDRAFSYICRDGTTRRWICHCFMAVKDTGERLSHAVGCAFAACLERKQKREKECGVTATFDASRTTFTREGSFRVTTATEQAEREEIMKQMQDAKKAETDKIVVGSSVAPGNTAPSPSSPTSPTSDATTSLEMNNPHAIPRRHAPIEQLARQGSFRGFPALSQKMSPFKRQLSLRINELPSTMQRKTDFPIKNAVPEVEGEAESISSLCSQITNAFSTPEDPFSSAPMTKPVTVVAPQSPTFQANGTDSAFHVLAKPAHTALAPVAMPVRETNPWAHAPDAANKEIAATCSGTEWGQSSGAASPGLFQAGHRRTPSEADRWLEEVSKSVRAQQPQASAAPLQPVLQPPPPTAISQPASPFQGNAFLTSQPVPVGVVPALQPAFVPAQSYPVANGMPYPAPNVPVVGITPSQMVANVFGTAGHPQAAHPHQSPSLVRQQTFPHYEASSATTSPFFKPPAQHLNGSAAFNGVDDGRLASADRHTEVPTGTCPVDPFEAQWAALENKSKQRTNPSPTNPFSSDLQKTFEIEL
UniProt P50053: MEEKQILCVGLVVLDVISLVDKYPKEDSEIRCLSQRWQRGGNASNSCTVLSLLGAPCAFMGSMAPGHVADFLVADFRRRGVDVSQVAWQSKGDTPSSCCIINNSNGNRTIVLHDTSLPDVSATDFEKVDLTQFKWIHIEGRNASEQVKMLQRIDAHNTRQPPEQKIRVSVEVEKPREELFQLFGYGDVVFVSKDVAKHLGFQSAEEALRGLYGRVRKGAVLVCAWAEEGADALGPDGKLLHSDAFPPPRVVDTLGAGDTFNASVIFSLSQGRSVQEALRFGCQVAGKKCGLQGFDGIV
UniProt P40937, whole entry: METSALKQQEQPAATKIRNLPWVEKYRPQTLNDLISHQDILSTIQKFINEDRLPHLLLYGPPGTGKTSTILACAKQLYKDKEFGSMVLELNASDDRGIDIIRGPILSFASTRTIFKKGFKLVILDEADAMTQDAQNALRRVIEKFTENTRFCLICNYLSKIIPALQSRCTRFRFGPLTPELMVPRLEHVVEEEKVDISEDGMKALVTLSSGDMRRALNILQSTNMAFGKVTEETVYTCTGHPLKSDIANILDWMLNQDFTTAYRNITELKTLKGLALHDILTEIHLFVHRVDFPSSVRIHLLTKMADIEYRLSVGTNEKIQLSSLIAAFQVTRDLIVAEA
UniProt P43403: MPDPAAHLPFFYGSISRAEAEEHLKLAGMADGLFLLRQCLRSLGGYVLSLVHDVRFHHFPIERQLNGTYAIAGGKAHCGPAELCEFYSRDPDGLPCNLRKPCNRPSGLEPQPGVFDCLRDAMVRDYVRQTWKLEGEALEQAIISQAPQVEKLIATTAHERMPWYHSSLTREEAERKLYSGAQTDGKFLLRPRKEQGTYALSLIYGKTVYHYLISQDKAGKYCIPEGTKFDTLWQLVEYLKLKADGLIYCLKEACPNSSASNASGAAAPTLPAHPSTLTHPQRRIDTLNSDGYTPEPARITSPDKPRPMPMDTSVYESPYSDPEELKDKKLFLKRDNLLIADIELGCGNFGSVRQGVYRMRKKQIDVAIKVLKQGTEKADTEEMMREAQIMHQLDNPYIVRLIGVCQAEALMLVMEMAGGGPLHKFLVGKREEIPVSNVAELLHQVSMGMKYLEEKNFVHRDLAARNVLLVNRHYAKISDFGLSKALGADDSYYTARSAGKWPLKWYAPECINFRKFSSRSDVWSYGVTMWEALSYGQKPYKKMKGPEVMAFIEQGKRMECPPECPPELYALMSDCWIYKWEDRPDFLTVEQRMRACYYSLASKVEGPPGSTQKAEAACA
UniProt P53365: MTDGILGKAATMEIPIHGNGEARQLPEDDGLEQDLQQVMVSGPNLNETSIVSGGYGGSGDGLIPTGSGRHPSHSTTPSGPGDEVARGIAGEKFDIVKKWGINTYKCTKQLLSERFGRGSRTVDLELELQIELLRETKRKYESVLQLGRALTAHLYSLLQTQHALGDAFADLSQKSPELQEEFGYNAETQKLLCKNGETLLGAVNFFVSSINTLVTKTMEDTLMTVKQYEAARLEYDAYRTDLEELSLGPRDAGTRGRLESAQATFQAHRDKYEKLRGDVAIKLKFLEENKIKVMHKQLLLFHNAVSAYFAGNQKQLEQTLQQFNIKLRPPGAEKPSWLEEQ
UniProt P49916: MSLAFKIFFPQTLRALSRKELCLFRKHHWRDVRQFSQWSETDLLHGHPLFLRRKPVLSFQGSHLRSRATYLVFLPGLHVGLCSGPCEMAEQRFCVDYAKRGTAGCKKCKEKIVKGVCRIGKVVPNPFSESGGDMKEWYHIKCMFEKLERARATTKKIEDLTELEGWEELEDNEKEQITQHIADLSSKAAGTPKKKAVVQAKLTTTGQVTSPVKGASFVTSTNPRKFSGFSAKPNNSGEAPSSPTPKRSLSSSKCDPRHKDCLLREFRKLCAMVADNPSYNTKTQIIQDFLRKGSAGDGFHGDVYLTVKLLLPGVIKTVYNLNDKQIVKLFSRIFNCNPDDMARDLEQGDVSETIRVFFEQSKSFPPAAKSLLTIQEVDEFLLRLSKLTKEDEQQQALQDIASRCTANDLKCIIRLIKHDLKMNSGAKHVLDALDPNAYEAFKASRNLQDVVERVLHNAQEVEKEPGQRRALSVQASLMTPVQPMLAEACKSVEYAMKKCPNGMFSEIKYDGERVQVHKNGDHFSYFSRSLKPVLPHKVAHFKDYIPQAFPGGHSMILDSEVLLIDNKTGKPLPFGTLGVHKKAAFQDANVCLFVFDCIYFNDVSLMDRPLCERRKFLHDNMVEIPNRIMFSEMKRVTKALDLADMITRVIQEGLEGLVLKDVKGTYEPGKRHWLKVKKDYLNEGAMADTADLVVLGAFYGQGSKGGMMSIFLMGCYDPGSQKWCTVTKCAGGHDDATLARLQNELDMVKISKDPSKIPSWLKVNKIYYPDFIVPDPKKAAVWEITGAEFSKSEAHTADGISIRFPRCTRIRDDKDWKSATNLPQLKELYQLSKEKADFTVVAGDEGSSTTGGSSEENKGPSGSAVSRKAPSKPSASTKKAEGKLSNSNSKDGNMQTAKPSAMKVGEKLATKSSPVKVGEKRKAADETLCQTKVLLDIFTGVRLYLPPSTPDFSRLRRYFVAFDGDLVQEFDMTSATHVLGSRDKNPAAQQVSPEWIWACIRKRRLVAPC
UniProt P51649: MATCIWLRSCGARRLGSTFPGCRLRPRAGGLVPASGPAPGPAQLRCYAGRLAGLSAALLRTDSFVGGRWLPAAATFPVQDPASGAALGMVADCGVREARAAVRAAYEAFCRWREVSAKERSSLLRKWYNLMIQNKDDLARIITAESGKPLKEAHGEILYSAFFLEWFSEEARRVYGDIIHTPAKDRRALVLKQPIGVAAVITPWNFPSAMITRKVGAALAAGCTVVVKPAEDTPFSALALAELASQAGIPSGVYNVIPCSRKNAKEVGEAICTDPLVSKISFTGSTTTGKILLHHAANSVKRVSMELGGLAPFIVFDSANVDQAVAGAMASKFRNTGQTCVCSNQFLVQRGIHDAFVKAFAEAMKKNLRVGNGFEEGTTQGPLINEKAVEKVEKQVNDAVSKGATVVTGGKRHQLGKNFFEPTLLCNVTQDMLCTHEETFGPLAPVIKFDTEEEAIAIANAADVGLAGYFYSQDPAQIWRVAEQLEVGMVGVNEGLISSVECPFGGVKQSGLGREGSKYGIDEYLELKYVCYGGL
UniProt P41440: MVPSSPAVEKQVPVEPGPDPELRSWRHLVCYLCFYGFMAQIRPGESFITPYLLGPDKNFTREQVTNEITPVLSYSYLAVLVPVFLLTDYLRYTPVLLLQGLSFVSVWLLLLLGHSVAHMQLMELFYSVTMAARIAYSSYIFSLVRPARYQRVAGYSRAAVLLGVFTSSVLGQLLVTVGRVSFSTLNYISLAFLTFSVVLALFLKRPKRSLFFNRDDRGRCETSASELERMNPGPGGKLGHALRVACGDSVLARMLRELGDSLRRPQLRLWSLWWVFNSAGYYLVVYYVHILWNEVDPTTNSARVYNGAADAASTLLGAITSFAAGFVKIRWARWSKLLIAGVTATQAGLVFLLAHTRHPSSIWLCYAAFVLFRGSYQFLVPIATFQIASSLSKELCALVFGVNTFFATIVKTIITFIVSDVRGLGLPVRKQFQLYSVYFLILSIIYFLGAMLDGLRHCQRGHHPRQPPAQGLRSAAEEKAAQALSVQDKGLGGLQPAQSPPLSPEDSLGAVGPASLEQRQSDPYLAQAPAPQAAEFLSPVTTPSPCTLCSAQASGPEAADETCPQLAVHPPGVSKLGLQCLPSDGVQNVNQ
UniProt P51452: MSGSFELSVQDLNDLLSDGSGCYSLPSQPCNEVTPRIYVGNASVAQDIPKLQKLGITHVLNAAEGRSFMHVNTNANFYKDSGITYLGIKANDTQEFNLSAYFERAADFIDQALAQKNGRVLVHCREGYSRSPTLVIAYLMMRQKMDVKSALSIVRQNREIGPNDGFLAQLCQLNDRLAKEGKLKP

Drawing on the supplement of paper PMC6411743, this text covers NP40-soluble protein abundance for 39 targets.

Compound in the first assay: Nc1ncnc2c1ncn2[C@@H]1O[C@H](COP(=O)(O)OP(=O)(O)NP(=O)(O)O)[C@@H](O)[C@H]1O [adenylyl imidodiphosphate]
As to the kind of experiment: NP40-soluble protein abundance relative to vehicle (solubility fold change) (ratio); higher = more soluble protein in presence of AMP-PNP. As to conditions: concentration: 8mM. A digest of the protocol:
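Jurkat crude lysate prepared with a Dounce homogeniser was treated at eight concentrations spanning 0.1 to 10 mM, 10 min at room temperature then 3 min at 37 °C. Solubilisation with 0.8% NP40 and benzonase and ultracentrifugation preceded TMT labelling of the supernatant for LC-MS/MS. Fold change against the detergent-processed vehicle was determined per replicate from vsn-normalised intensities, across three independent experiments.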
In the case of UniProt P54136 and related entries, the NP40-soluble protein abundance is 0.945 ± 0.13.

For the target UBA7 (UniProt P41226), the NP40-soluble protein abundance was found to be 0.976 ± 0.038.

In the case of ACTR1B (UniProt P42025), the NP40-soluble protein abundance turned out to be 0.965 ± 0.063.

For UniProt P52824 and related entries, the NP40-soluble protein abundance was 0.96 ± 0.039.

As for SUCLG1 (UniProt P53597), the NP40-soluble protein abundance turned out to be 1.02 ± 0.067.

In the case of UniProt P49959, the NP40-soluble protein abundance was determined as 1.01 ± 0.04.

Turning to UniProt P41214, the NP40-soluble protein abundance turned out to be 1.04 ± 0.061.

HLCS (UniProt P50747): the NP40-soluble protein abundance turned out to be 0.969 ± 0.045.

Regarding UniProt P48634 and related entries, the NP40-soluble protein abundance amounted to 1.21 ± 0.17.

UniProt P51572 and related entries: the NP40-soluble protein abundance amounted to 1.03 ± 0.049.

PIK3CA (UniProt P42336): the NP40-soluble protein abundance worked out at 0.964 ± 0.057.

Turning to UniProt P49757 and related entries, the NP40-soluble protein abundance came to 1.06 ± 0.026.

On to UniProt P50053 and related entries, for which the NP40-soluble protein abundance turned out to be 1 ± 0.032.

Staying with this assay, now noted: concentration: 10mM.
Regarding RFC5 (UniProt P40937), the NP40-soluble protein abundance amounted to 1.13 ± 0.071.

In the case of UniProt P43403 and related entries, the NP40-soluble protein abundance is 1.05 ± 0.034.

For the target SLC16A1 (UniProt P53985), the NP40-soluble protein abundance was found to be 0.984 ± 0.072.

With UniProt P54886 and related entries, the NP40-soluble protein abundance turned out to be 0.997 ± 0.028.

Consider RABIF (UniProt P47224), for which the NP40-soluble protein abundance is 1.02 ± 0.072.

On to VASP (UniProt P50552), for which the NP40-soluble protein abundance is 0.9961 ± 0.0094.

With UniProt P53365 and related entries, the NP40-soluble protein abundance came to 0.949 ± 0.071.

UniProt P49841 and related entries: the NP40-soluble protein abundance was 1.01 ± 0.043.

Take MVD (UniProt P53602): the NP40-soluble protein abundance amounted to 1 ± 0.051.

Consider UniProt P49590 and related entries, for which the NP40-soluble protein abundance stood at 0.895 ± 0.041.

Regarding PMS2 (UniProt P54278), the NP40-soluble protein abundance was determined as 1.13 ± 0.091.

With TRAPPC10 (UniProt P48553), the NP40-soluble protein abundance came to 0.961 ± 0.052.

For the target POLR2K (UniProt P53803), the NP40-soluble protein abundance is 1.19 ± 0.031.

Consider UniProt P41229 and related entries, for which the NP40-soluble protein abundance was found to be 0.984 ± 0.042.

Turning to UniProt P50548 and related entries, the NP40-soluble protein abundance came out at 0.913 ± 0.081.

With IDH2 (UniProt P48735), the NP40-soluble protein abundance is 0.942 ± 0.034.

UniProt P53990 and related entries: the NP40-soluble protein abundance is 0.96 ± 0.049.

On to STAT1 (UniProt P42224), for which the NP40-soluble protein abundance amounted to 0.936 ± 0.043.

Turning to UniProt P49916 and related entries, the NP40-soluble protein abundance is 1.12 ± 0.067.

Take FNTA (UniProt P49354): the NP40-soluble protein abundance came out at 1.01 ± 0.076.

Regarding UniProt P46934-4|H0Y9L1, the NP40-soluble protein abundance was found to be 0.976 ± 0.063.

Regarding UniProt P51649 and related entries, the NP40-soluble protein abundance was determined as 0.914 ± 0.016.

SLC19A1 (UniProt P41440): the NP40-soluble protein abundance was 1 ± 0.042.

With DUSP3 (UniProt P51452), the NP40-soluble protein abundance worked out at 1.02 ± 0.04.

In the case of UniProt P47897 and related entries, the NP40-soluble protein abundance turned out to be 0.903 ± 0.18.

For the target “UniProt P46020-2|A6NMN0 and related entries”, the NP40-soluble protein abundance worked out at 0.904 ± 0.069.

Turning to UniProt P54136 and related entries, the NP40-soluble protein abundance came to 0.894 ± 0.16.

As for UBA7 (UniProt P41226), the NP40-soluble protein abundance turned out to be 0.96 ± 0.041.

For ACTR1B (UniProt P42025), the NP40-soluble protein abundance turned out to be 0.961 ± 0.091.

For the target UniProt P52824 and related entries, the NP40-soluble protein abundance came out at 0.986 ± 0.03.

For the target SUCLG1 (UniProt P53597), the NP40-soluble protein abundance stood at 1.03 ± 0.026.

Turning to UniProt P49959, the NP40-soluble protein abundance is 0.997 ± 0.025.

In the case of UniProt P41214, the NP40-soluble protein abundance was 1.05 ± 0.041.

In the case of HLCS (UniProt P50747), the NP40-soluble protein abundance turned out to be 0.954 ± 0.015.

In the case of UniProt P48634 and related entries, the NP40-soluble protein abundance worked out at 1.29 ± 0.18.

For UniProt P51572 and related entries, the NP40-soluble protein abundance worked out at 1.01 ± 0.033.

Take PIK3CA (UniProt P42336): the NP40-soluble protein abundance was determined as 0.938 ± 0.033.

Regarding UniProt P49757 and related entries, the NP40-soluble protein abundance amounted to 1.1 ± 0.032.

On to UniProt P50053 and related entries, for which the NP40-soluble protein abundance is 0.995 ± 0.036.
